We go through 25 compounds from PubChem BioAssay AID328 (DTP/NCI, 2004).

The list shows only some results of the screen, not a fair sample: it gathers tests that were run many times, whatever their T/C, doses with no T/C, and many T/C values between a quarter and a half above the control. Other doses and runs of a compound stand elsewhere. T/C: endpoint of the treated group in % of that of the vehicle group. Some doses have a count of surviving animals in place of a T/C: the source holds a T/C of zero for them, seemingly a mark for toxic or unscored doses. Some survivor counts are full or nearly so, which does not show that the dose was tolerated: survival well below the control is almost never listed, so the zero probably covers shortened survival too. Counts of survivors are from the toxicity check (mostly the fifth day) where no day follows; animals may have died later. Schedule codes are those of the source, taken here to give the interval after Q, in days (D) or hours (H), and the number of doses after X. Some entries were tested several times; their values stand side by side, smallest first. Where survival is the endpoint, this PubChem deposit counts one and a half times the control or more as active, and values a quarter to a half above the control carry no call in these data; other NCI protocols may use other cut-offs. Some T/C values carry the count of animals alive at the toxicity check (mostly the fifth day); where none is given, no animal had died by that day.

The assay concerns BDF1 mice, P388 leukemia ip, median survival T/C. Kind of assay: NCI In Vivo Anticancer Drug Screen. Data for tumor model P388 Leukemia (intraperitoneal) in B6D2F1 (BDF1) mice. The following applies: T/C endpoint: median survival time, higher T/C = longer survival. Summed up: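 Steps: implant the tumour, treat one group with compound and another with vehicle, record survival, then divide treated by control.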

[1] abbreviates: dose: 100.0 mg/kg/injection, schedule: Q04DX003 (ip), vehicle: saline with Tween-80.
The mark [2] stands for this setting: dose: 200.0 mg/kg/injection, schedule: Q04DX003 (ip), vehicle: saline with Tween-80.
Setting [3] is: dose: 400.0 mg/kg/injection, schedule: Q04DX003 (ip), vehicle: saline with Tween-80.
The mark [4] stands for this setting: dose: 50.0 mg/kg/injection, schedule: Q01DX009 (ip), vehicle: saline.
Where [5] appears, read: dose: 75.0 mg/kg/injection, schedule: Q01DX009 (ip), vehicle: saline.
Where [6] appears, read: dose: 400.0 mg/kg/injection, schedule: Q01DX009 (ip), vehicle: saline with Tween-80.
The mark [7] stands for this setting: dose: 200.0 mg/kg/injection, schedule: Q01DX009 (ip), vehicle: saline with Tween-80.
[8] abbreviates: dose: 50.0 mg/kg/injection, schedule: Q01DX009 (ip), vehicle: saline with Tween-80.
Setting [9] is: dose: 100.0 mg/kg/injection, schedule: Q01DX009 (ip), vehicle: saline with Tween-80.
Where [10] appears, read: dose: 25.0 mg/kg/injection, schedule: Q01DX009 (ip), vehicle: Klucel (hydroxypropylcellulose) (HPC).
Setting [11] is: dose: 400.0 mg/kg/injection, schedule: Q01DX009 (ip), vehicle: Klucel (hydroxypropylcellulose) (HPC).
[12] abbreviates: dose: 25.0 mg/kg/injection, schedule: Q01DX009 (ip), vehicle: saline with Tween-80.
[13] abbreviates: dose: 100.0 mg/kg/injection, schedule: Q01DX009 (ip), vehicle: Klucel (hydroxypropylcellulose) (HPC).

In the case of `OCCN1CCN(CC/C=C2\c3ccccc3COc3ccc(Cl)cc32)CC1`, the survivor count (dose: 12.5 mg/kg/injection, schedule: Q04DX003 (ip), vehicle: saline) is given as 3 of 6. The T/C (dose: 50.0 mg/kg/injection, schedule: Q04DX003 (ip), vehicle: saline) is 147 % of control.
As for `C(=C(c1ccccc1)c1ccccc1)c1ccccn1`, the survivor count runs as follows: under setting [1], 6 of 6; under setting [2], 6 of 6; under setting [3], 6 of 6.
Take `CCCCCCCCCCCCCCCCP(=O)(OCCOCCCCCC)OCCOCCCCCC`: where the note is “dose: 50.0 mg/kg/injection, schedule: Q01DX009 (ip), vehicle: alcohol”, the T/C was 138 % of control. Also, the survivor count runs as follows: under setting [4], 6 of 6; under setting [5], 6 of 6; (dose: 330.0 mg/kg/injection, schedule: Q01DX001 (ip), vehicle: saline) 3 of 6.
As for `CCCC(=O)OCC1OC(n2cnc3c(=S)nc(N)[nH]c32)C(OC(=O)CCC)C1OC(=O)CCC` (stereo unspecified), the T/C is 146 % of control (dose: 25.0 mg/kg/injection, schedule: Q04DX003 (ip), vehicle: saline with Tween-80) and 127 % of control (dose: 37.5 mg/kg/injection, schedule: Q04DX003 (ip), vehicle: saline with Tween-80).
In the case of `COC(OC)c1nc(N)[nH]c(=O)c1Cc1ccc(C)c2ccccc12`, under setting [6], the survivor count is recorded as 6 of 6.
With `CN(C)CC/C=C1\c2ccccc2Sc2ccc(C(F)(F)F)cc21`, the T/C is, setting by setting: (dose: 14.0 mg/kg/injection, schedule: Q04DX003 (ip), vehicle: saline) 125 and 131 % of control; (dose: 21.0 mg/kg/injection, schedule: Q04DX003 (ip), vehicle: saline) 145 % of control; (dose: 43.3 mg/kg/injection, schedule: Q01DX001 (ip), vehicle: saline) 136 % of control. The survivor count is listed as 4 of 6 (dose: 45.0 mg/kg/injection, schedule: Q04DX003 (ip), vehicle: saline); 4 of 6 (dose: 65.0 mg/kg/injection, schedule: Q04DX003 (ip), vehicle: saline); 5 of 6 (dose: 97.5 mg/kg/injection, schedule: Q01DX001 (ip), vehicle: saline).
For the compound `N#C/C(=C\c1cc(Cl)cc(Cl)c1O)c1nc2ccccc2[nH]1`, under setting [7], the survivor count was 6 of 6.
Take `CO[C@@H](C=O)O[C@@H](C=O)CO`: the T/C is 130 % of control (dose: 12.5 mg/kg/injection, schedule: Q01DX009 (ip), vehicle: saline) and 130 % of control (dose: 25.0 mg/kg/injection, schedule: Q04DX003 (ip), vehicle: saline). Besides, the survivor count (dose: 400.0 mg/kg/injection, schedule: Q04DX003 (ip), vehicle: saline) is reported as 2 of 6.
With `C/C(=N\NC(=S)N1CCCCC1)c1ccccn1`, the survivor count runs as follows: under setting [8], 2 of 6; under setting [9], 0 of 6; under setting [7], 1 of 6.
In the case of `CC1OC(OC2CCCc3c(O)c4c(c(O)c32)C(=O)c2ccccc2C4=O)CC(N)C1O` (stereo unspecified), the survivor count (dose: 32.0 mg/kg/injection, schedule: Q01DX009 (ip), vehicle: water) is reported as 0 of 6.
Regarding `O=C(O)CNC(=O)Nc1ccccc1`, the survivor count under setting [1] is on record as 6 of 6.
For `Cc1ccc(N2C=Nc3ccc(C)cc3C2)cc1`, the T/C under setting [10] is 127 % of control. The survivor count runs as follows: under setting [11], 0 of 6; (dose: 400.0 mg/kg/injection, schedule: Q04DX003 (ip), vehicle: other) 2 of 6.
Consider `COc1cc(C=Nc2cccc(C(=O)O)c2)ccc1N(CCCl)CCCl`, for which the survivor count runs as follows: under setting [1], 3 of 6; (dose: 150.0 mg/kg/injection, schedule: Q04DX003 (ip), vehicle: saline with Tween-80) 1 of 6.
On to `CC(C)C(=O)[O][Pb]([c]1ccccc1)([c]1ccccc1)[c]1ccccc1`, for which the survivor count runs as follows: under setting [12], 5 of 6; under setting [8], 2 of 6; under setting [9], 0 of 6.
Regarding `O=C(NC(=O)C(F)(F)C(F)(F)F)Nc1cccc(F)c1`, the survivor count under setting [10] is on record as 6 of 6.
For `CS(=O)(=O)OCCN(CCOS(C)(=O)=O)c1ccc(C=O)cc1`, the survivor count reads like this: under setting [12], 6 of 6; under setting [8], 4 of 6 and 6 of 6; under setting [9], 1 of 6; under setting [1], 5 of 6; under setting [7], 2 of 6; under setting [2], 3 of 6. Besides, the survivor count under setting [3] was 2 of 6.
As to `CC1(C)N=C(N)N=C(N)N1c1cccc(CC(=O)Nc2ccc(S(=O)(=O)F)cc2)c1`, the T/C runs as follows: (dose: 66.0 mg/kg/injection, schedule: Q01DX009 (ip), vehicle: saline with Tween-80) 127 % of control; under setting [9], 140 % of control [5 of 6 alive]. Also, the survivor count is listed as 0 of 6 (dose: 150.0 mg/kg/injection, schedule: Q01DX009 (ip), vehicle: saline with Tween-80) and 4 of 6 under setting [6].
In the case of `NC(=O)c1cn[nH]c1N`, the survivor count is, setting by setting: under setting [13], 6 of 6; (dose: 200.0 mg/kg/injection, schedule: Q01DX009 (ip), vehicle: Klucel (hydroxypropylcellulose) (HPC)) 6 of 6; under setting [11], 6 of 6.
Regarding `COC1=CC(=O)c2c(O)cc(OC)c(O)c2C1=O`, the T/C reads like this: (dose: 1.25 mg/kg/injection, schedule: Q01DX009 (ip), vehicle: saline with Tween-80) 127 % of control; (dose: 10.0 mg/kg/injection, schedule: Q01DX009 (ip), vehicle: saline with Tween-80) 129 % of control.
In the case of `Cc1ccc(C2(C(=O)O)CCCC2)cc1`, the survivor count reads like this: under setting [13], 6 of 6; under setting [9], 5 of 6; under setting [6], 6 of 6.
`Clc1nc2nnnn2c2ccccc12`: the survivor count (dose: 80.0 mg/kg/injection, schedule: Q01DX009 (ip), vehicle: saline) is given as 3 of 7.
As to `COc1ccc(-c2cc(=O)c3c(O)c(OC)c(O)cc3o2)cc1`, under “dose: 40.0 mg/kg/injection, schedule: Q01DX010 (ip), vehicle: carboxymethylcellulose (CMC)”, the survivor count was 4 of 4.
Turning to `CC(=O)OC(C)(C)/C=C/C(=O)[C@](C)(O)[C@H]1[C@H](O)C[C@@]2(C)[C@@H]3CC=C4[C@@H](C[C@H](O)[C@H](O)C4(C)C)[C@]3(C)C(=O)C[C@]12C`, the survivor count is 6 of 6 (dose: 266.0 mg/kg/injection, schedule: Q01DX010 (ip), vehicle: saline); 1 of 6 (dose: 400.0 mg/kg/injection, schedule: Q01DX010 (ip), vehicle: saline); 0 of 6 (dose: 600.0 mg/kg/injection, schedule: Q01DX010 (ip), vehicle: saline).
Turning to `CC1=Nc2ccccc2N=C(C)C1`, the survivor count is, setting by setting: (dose: 225.0 mg/kg/injection, schedule: Q01DX009 (ip), vehicle: saline with Tween-80) 3 of 6; (dose: 335.0 mg/kg/injection, schedule: Q01DX009 (ip), vehicle: saline with Tween-80) 1 of 6; under setting [3], 6 of 6.
For the compound `Nc1cc(Cl)c2cccnc2c1O`, the T/C is, setting by setting: (dose: 25.0 mg/kg/injection, schedule: Q01DX009 (ip), vehicle: saline) 127 % of control; (dose: 33.0 mg/kg/injection, schedule: Q01DX009 (ip), vehicle: saline) 131 % of control; under setting [4], 127, 128, 135, 141 % of control; (dose: 100.0 mg/kg/injection, schedule: Q04DX003 (ip), vehicle: saline sonified) 125 % of control. Further, the survivor count under setting [5] was 5 of 6; the survivor count (dose: 100.0 mg/kg/injection, schedule: Q01DX009 (ip), vehicle: saline) is 1 of 6 and 2 of 6; the survivor count (dose: 150.0 mg/kg/injection, schedule: Q04DX003 (ip), vehicle: saline sonified) is 3 of 6; the survivor count (dose: 200.0 mg/kg/injection, schedule: Q04DX003 (ip), vehicle: saline sonified) was 2 of 6.
